In paper PMC8423818:
These are yes or no findings as the source states them, for the method shown. Binding seen in cells or lysates may run through a third protein. Here binding means that the protein was enriched with, or labelled near, the bait; the list need not be complete. For some assays here: No binding means not detected with the bait.

Amino acid sequences for entries named in this document (tags omitted). A change or cut given only in a name is not applied to a line headed by its entry.
UniProt P60953: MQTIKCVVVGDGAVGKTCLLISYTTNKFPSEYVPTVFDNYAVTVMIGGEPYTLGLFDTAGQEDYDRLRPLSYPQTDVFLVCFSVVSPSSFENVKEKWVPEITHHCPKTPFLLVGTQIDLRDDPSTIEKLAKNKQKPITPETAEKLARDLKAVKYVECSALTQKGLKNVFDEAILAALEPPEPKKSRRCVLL
UniProt O96013: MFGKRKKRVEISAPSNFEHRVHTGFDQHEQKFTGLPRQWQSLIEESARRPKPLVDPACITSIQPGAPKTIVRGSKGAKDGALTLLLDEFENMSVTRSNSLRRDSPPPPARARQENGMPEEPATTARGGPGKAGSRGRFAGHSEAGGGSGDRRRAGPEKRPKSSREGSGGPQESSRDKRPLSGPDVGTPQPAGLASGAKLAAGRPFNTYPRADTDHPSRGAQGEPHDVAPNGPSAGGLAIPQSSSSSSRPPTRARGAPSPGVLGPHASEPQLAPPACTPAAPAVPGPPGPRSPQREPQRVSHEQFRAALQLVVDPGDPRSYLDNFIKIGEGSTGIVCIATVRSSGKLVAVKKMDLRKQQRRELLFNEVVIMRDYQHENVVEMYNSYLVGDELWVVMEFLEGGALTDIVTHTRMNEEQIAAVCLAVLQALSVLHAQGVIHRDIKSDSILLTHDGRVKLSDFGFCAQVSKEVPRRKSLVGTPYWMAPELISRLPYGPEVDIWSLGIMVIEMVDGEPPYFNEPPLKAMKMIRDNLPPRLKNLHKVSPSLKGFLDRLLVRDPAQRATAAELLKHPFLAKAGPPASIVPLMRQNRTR
UniProt P12830: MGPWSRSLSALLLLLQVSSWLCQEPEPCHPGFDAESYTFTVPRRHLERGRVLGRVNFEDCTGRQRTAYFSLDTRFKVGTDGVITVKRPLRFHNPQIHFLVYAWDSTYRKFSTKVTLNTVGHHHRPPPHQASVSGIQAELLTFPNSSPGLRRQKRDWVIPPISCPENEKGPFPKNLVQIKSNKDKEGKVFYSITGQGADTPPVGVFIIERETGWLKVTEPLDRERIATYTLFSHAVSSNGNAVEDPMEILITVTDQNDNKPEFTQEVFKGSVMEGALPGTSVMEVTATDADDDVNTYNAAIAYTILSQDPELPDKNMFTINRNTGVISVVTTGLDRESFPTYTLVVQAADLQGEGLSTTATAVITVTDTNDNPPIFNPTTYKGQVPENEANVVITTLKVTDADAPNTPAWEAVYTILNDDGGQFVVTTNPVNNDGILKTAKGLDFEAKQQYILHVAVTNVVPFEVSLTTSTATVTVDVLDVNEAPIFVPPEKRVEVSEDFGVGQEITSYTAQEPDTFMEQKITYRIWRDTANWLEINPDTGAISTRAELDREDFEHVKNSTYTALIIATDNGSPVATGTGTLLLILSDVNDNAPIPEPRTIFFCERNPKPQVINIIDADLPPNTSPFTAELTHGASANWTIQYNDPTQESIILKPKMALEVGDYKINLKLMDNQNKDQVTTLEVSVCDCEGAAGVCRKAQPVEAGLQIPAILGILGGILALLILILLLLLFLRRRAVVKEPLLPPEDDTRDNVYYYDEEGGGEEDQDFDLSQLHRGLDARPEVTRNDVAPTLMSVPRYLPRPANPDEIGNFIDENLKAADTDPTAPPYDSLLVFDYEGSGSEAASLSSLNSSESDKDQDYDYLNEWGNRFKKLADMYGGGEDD
UniProt P19022: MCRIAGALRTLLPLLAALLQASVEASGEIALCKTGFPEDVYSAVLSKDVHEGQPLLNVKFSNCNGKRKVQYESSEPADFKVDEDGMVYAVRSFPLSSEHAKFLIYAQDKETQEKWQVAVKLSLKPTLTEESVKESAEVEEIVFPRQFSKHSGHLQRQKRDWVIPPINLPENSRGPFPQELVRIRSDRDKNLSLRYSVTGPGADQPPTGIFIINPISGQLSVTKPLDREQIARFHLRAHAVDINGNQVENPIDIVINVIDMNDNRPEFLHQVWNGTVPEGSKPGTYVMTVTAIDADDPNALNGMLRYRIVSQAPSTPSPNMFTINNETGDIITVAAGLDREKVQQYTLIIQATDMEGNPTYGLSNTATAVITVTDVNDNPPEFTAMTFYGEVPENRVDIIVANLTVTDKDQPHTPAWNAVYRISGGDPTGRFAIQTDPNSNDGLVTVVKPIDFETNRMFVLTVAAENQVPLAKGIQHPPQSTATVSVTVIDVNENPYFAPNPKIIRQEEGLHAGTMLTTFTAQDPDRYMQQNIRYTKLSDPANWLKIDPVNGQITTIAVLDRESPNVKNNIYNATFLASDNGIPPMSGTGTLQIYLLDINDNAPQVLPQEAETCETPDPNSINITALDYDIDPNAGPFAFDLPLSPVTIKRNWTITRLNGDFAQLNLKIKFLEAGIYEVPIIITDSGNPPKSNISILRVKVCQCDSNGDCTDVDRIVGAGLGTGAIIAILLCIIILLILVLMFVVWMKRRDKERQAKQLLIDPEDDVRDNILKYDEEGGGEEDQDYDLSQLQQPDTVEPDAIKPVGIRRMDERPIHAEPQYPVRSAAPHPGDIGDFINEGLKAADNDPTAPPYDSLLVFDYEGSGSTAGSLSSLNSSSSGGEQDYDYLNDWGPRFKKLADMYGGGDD
UniProt Q9NQU5: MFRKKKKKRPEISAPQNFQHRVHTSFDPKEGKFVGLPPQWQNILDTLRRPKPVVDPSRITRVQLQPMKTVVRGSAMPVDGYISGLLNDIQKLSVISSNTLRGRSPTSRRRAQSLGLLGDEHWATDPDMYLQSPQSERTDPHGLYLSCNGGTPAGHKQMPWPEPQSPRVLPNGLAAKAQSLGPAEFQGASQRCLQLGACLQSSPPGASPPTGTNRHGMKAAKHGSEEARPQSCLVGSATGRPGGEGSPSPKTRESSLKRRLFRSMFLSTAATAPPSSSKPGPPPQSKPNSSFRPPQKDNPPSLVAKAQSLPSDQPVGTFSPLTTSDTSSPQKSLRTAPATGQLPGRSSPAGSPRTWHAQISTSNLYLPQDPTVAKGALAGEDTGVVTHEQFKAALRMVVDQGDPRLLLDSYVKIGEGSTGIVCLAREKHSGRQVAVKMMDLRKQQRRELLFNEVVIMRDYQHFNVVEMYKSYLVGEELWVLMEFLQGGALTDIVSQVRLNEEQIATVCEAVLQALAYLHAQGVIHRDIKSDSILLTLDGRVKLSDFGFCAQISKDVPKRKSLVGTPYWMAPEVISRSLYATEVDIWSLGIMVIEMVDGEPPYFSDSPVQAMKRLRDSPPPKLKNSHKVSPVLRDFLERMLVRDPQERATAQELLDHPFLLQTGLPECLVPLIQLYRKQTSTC
UniProt P35222: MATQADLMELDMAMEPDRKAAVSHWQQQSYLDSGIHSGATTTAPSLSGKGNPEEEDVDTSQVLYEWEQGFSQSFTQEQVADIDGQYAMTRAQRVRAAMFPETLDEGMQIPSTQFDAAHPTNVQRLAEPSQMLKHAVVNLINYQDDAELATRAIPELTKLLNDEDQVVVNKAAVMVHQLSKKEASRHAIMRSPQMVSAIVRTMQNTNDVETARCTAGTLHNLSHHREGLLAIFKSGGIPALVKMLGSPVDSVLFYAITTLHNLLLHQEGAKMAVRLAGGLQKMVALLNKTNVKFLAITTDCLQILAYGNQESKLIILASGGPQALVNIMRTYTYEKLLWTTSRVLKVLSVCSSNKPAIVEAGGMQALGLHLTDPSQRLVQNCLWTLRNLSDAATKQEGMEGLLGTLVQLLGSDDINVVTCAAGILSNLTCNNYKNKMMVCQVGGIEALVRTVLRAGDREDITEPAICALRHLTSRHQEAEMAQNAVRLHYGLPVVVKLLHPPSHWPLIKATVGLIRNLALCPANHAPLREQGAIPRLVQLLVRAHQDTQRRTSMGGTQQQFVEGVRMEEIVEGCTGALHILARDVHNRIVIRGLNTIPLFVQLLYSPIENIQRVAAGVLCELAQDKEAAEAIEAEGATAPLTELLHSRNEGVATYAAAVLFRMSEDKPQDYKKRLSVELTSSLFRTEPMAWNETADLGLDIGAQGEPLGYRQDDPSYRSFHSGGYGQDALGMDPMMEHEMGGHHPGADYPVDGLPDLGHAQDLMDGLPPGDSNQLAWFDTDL

Assays:
[1] = molecular target: GFP-BirA-Cdc42 (wild type) (UniProt P60953); assay: proximity labelling; SILAC BioID in U2OS cell lines expressing GFP-BirA-Cdc42 (wild type); hits: SILAC enrichment >3
[2] = molecular target: PAK4-BirA*-GFP (human) (UniProt O96013); assay: proximity labelling; SILAC BioID in stable U2OS cells expressing PAK4-BirA*-GFP against GFP-BirA* control cells; 100 μM biotin for 5 h; biotinylated proteins captured on Neutravidin beads, washed with 1% SDS, identified by LC-MS/MS; hits: SILAC ratio >3.0, two independent experiments
[3] = molecular target: PAK4-BirA*-GFP (human) (UniProt O96013); assay: affinity purification with mass spectrometry; GFP-trap Sepharose co-immunoprecipitation of PAK4-BirA-GFP from non-ionic detergent solubilized U2OS lysates, SILAC normalization to GFP-BirA control

Substance | binding [1] | binding [2] | binding [3]
E-cadherin (from UniProt P12830) | no binding | no binding | 
N-cadherin (from UniProt P19022) |  | no binding | 
PAK6 (from UniProt Q9NQU5 1-681) (enzyme) |  |  | binds
β-catenin (from UniProt P35222 1-781) |  | no binding | 
